Among the data in publication PMC9794714 are binding values, retold here.

Chains of the proteins cited; added tags and fusions are not shown.
UniProt Q13541: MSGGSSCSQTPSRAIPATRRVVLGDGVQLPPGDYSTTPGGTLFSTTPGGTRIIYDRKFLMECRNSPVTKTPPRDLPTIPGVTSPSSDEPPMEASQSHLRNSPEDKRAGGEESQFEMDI
UniProt P40763: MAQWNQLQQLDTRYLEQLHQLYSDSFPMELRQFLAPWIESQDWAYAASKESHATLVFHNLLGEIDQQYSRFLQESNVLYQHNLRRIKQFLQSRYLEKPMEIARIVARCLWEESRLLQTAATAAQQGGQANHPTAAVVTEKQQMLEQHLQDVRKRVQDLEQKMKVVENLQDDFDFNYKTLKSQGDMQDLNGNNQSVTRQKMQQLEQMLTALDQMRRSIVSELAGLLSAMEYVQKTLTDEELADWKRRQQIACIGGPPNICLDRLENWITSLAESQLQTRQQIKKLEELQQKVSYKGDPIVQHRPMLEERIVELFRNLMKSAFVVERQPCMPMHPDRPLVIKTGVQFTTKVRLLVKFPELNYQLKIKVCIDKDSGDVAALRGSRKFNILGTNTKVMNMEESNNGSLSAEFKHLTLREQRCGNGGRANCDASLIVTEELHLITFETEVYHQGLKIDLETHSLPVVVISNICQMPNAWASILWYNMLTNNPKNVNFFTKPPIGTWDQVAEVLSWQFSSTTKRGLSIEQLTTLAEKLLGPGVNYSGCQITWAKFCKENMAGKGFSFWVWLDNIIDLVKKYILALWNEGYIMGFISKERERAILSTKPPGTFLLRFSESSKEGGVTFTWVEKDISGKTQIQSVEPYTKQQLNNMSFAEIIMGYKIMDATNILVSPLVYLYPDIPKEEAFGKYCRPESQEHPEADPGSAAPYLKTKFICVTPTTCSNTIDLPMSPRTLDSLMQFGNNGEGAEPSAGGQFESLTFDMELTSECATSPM

These are yes or no findings as the source states them, for the method shown. Binding seen in cells or lysates may run through a third protein. Some entries that bind do so weakly or less than the wild type. For some of these results: Sequences can lack the tags named with a protein.

Assay [1] has as its target Flag-4EBP1 (UniProt Q13541). Description: co-IP; A549 cells transfected with Flag-4EBP1 or vector, normal or glucose starvation for 9 h; immunoprecipitation with anti-Flag antibody, western blot. In general terms: Immunoblotting shows a protein as a band on a membrane.
Assay [2] has as its target T1, HA-HERC5 (HECT and RLD domain containing E3 ubiquitin protein ligase 5) (UniProt Q9UII4).
T1 sequence: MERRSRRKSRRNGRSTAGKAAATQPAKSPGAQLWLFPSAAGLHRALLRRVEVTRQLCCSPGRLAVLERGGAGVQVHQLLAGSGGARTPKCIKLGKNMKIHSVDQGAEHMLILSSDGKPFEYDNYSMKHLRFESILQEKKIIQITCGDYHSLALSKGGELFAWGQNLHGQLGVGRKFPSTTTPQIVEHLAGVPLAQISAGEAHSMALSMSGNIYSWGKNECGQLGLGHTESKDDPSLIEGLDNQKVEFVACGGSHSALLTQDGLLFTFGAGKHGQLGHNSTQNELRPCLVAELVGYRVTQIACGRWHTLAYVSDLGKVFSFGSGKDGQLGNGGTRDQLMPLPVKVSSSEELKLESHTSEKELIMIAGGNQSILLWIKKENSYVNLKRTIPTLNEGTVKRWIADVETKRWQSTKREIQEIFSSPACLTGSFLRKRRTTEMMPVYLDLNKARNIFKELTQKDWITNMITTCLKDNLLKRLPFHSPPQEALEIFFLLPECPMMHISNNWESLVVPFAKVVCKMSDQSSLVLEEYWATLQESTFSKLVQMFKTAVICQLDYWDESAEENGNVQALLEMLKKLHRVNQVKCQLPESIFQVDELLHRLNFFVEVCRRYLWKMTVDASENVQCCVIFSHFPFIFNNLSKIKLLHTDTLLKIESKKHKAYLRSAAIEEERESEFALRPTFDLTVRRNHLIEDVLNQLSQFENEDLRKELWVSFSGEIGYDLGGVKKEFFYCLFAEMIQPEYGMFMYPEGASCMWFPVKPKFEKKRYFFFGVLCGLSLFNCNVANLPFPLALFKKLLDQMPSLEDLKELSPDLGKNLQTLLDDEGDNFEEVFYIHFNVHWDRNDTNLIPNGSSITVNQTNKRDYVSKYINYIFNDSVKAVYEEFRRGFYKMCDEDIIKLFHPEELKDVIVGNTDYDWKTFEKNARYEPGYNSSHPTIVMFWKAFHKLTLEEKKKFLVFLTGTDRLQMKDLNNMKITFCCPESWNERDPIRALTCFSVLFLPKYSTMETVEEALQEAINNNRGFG
As to the kind of experiment: co-IP; A549 cells transfected with HA-HERC5 or vector, normal or glucose starvation for 9 h; immunoprecipitates with anti-HA antibody blotted.

In assay [3] the target is T2, Flag-PTPMT1 (protein tyrosine phosphatase localized to the Mitochondrion 1) (UniProt Q8WUK0).
T2 sequence: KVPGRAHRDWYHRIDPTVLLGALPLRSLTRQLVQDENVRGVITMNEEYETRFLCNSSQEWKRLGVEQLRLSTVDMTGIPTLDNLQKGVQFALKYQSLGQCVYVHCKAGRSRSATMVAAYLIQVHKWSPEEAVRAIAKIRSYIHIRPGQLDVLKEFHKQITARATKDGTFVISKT
As to the kind of experiment: co-IP; A549 cells transfected with Flag-PTPMT1 or vector, normal or glucose starvation for 9 h; immunoprecipitation followed by western blot (antibody of the precipitation not named).

The target of assay [4] is STAT3 (signal transducer and activator of transcription-3), endogenous in A549 cells (human (endogenous in A549)) (UniProt P40763). As to the kind of experiment: co-IP; endogenous proteins of A549 cells, normal or glucose starvation for 9 h; immunoprecipitation with anti-STAT3 antibody, western blot.

Consider “STAT3 (signal transducer and activator of transcription-3), endogenous in A549 cells (from UniProt P40763 1-770)”, for which the binding entry in assay [1] was “binds”.
For “Eukaryotic translation initiation factor 4E binding protein 1 (4EBP1), endogenous in A549 cells (from UniProt Q13541 1-118)”, the binding entry in assay [2], in assay [3] and in assay [4] was “binds” each time.
